Measurements from the supplement of paper PMC9233669.
Variants at the background level are over-represented here.

Legend:
biotinyl-Leu-oxazolone = assay: self-aminoacylation, catalytic enhancement (BLO) (fold over background); higher = more active; k-Seq, kA / k0A0; sequences stand for … in GGGAAUGGAUCCACAUCUACGAAUUC…UUCACUGCAGACUUGACGAAGCUG
Method in brief: (§1)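 The uncatalyzed rate is the low-activity peak of a bimodal Gaussian fit, and catalytic enhancement is median kA divided by it. The kA values came from pseudo-first-order fits, with 1000 bootstraps, of per-sequence fraction reacted measured by streptavidin capture, triplicate qPCR and Illumina sequencing. Mutagenized RNA pools with a 21-nt variable region (0.43 μM) were reacted with each biotinyl-aminoacyl-oxazolone at 2–1250 μM in 50 μL HEPES/NaCl/KCl/MgCl2/CaCl2 buffer with 5% acetonitrile, pH 6.9–7.0, for 90 minutes at room temperature.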

biotinyl-Val-oxazolone = assay: self-aminoacylation, catalytic enhancement (BVO) (fold over background); higher = more active; k-Seq, kA / k0A0; sequences stand for … in GGGAAUGGAUCCACAUCUACGAAUUC…UUCACUGCAGACUUGACGAAGCUG
Method in brief: as §1

biotinyl-Ile-oxazolone = assay: self-aminoacylation, catalytic enhancement (BIO) (fold over background); higher = more active; k-Seq, kA / k0A0; sequences stand for … in GGGAAUGGAUCCACAUCUACGAAUUC…UUCACUGCAGACUUGACGAAGCUG
Method in brief: as §1

biotinyl-Phe-oxazolone = assay: self-aminoacylation, catalytic enhancement (BFO) (fold over background); higher = more active; k-Seq, kA / k0A0; sequences stand for … in GGGAAUGGAUCCACAUCUACGAAUUC…UUCACUGCAGACUUGACGAAGCUG
Method in brief: as §1

biotinyl-Trp-oxazolone = assay: self-aminoacylation, catalytic enhancement (BWO) (fold over background); higher = more active; k-Seq, kA / k0A0; sequences stand for … in GGGAAUGGAUCCACAUCUACGAAUUC…UUCACUGCAGACUUGACGAAGCUG
Method in brief: as §1

biotinyl-Met-oxazolone = assay: self-aminoacylation, catalytic enhancement (BMO) (fold over background); higher = more active; k-Seq, kA / k0A0; sequences stand for … in GGGAAUGGAUCCACAUCUACGAAUUC…UUCACUGCAGACUUGACGAAGCUG
Method in brief: as §1

| Sequence | self-aminoacylation (biotinyl-Leu-oxazolone) | self-aminoacylation (biotinyl-Val-oxazolone) | self-aminoacylation (biotinyl-Ile-oxazolone) | self-aminoacylation (biotinyl-Phe-oxazolone) | self-aminoacylation (biotinyl-Trp-oxazolone) | self-aminoacylation (biotinyl-Met-oxazolone) |
| --- | --- | --- | --- | --- | --- | --- |
| CAACUUCAAACAAUCGGUCAG [Fam1A.1 aminoacylation ribozyme variant] | 1.2 | 1.22 | 1.32 | 19.5 | 11.9 | 1.14 |
| CAACUUCAAACGAUCGGUCUG [Fam1A.1 aminoacylation ribozyme variant] | 0.99 | 1.25 | 1.13 | 2.25 | 2.65 | 0.881 |
| CAACUUCCAACAAUCGGUCUG [Fam1A.1 aminoacylation ribozyme variant] | 0.985 | 0.929 | 1.13 | 1.69 | 1.14 | 1.15 |
| CCAAACAUCAAGCAAUCGGUC [Fam1B.1 aminoacylation ribozyme variant] | 0.793 | 0.878 | 0.904 | 1.01 | 0.972 | 0.831 |
| CCAAACUUAAAGCAAUCGGUC [Fam1B.1 aminoacylation ribozyme variant] | 0.877 | 1.04 | 1.03 | 0.732 | 0.71 | 0.795 |
| CCAAACUUCAAGCAAGCGGUC [Fam1B.1 aminoacylation ribozyme variant] | 0.868 | 1 | 1.03 | 0.852 | 0.81 | 0.885 |
| CCAAACUUCAAGCAAUCUGUC [Fam1B.1 aminoacylation ribozyme variant] | 0.284 | 0.528 | 0.468 | 0.7 | 0.307 | 0.377 |
| CCAAACUUCAAGCACUCGGUC [Fam1B.1 aminoacylation ribozyme variant] | 1.01 | 1.41 | 1.23 | 1.52 | 1.19 | 1.31 |
| CCAAACUUCAGGCAAUCGGUC [Fam1B.1 aminoacylation ribozyme variant] | 1.24 | 1.75 | 1.46 | 1.03 | 1.65 | 1.53 |
| CCAAACUUCCAGCAAUCGGUC [Fam1B.1 aminoacylation ribozyme variant] | 1.09 | 1.56 | 1.32 | 0.708 | 1.17 | 1.1 |
| CCAAGCUUCAAGCAAUCGGUC [Fam1B.1 aminoacylation ribozyme variant] | 2.5 | 1.3 | 1.35 | 86.5 | 44.9 | 1.51 |
| CCACAAUUCAAGCAAUCGGAC [Fam1B.1 aminoacylation ribozyme variant] | 0.884 | 0.798 | 1.15 | 0.942 | 0.711 | 0.783 |
| CCACAAUUCAAGGAAUCGGUC [Fam1B.1 aminoacylation ribozyme variant] | 1.05 | 1.16 | 1.01 | 1.17 | 1.14 | 1.27 |
| CCACACAUCAAGCAAUCGGUA [Fam1B.1 aminoacylation ribozyme variant] | 1.12 | 1.45 | 1.13 | 0.672 | 0.43 | 1.3 |
| CCACACAUCAAGCAAUUGGUC [Fam1B.1 aminoacylation ribozyme variant] | 0.873 | 0.829 | 0.921 | 0.913 | 0.782 | 0.667 |
| CCACACAUCACGCAAUCGGUC [Fam1B.1 aminoacylation ribozyme variant] | 1.01 | 1.27 | 1.01 | 0.984 | 0.873 | 0.877 |
| CCACACCUCAAGCAAUAGGUC [Fam1B.1 aminoacylation ribozyme variant] | 0.668 | 0.872 | 0.799 | 1.02 | 0.675 | 0.562 |
| CCACACCUCAGGCAAUCGGUC [Fam1B.1 aminoacylation ribozyme variant] | 1.65 | 1.96 | 1.74 | 1.13 | 1.39 | 1.08 |
| CCACACCUCAUGCAAUCGGUC [Fam1B.1 aminoacylation ribozyme variant] | 0.685 | 1.05 | 0.959 | 1.19 | 0.975 | 0.839 |
| CCACACCUCUAGCAAUCGGUC [Fam1B.1 aminoacylation ribozyme variant] | 0.947 | 1.05 | 1.14 | 0.749 | 0.532 | 0.766 |
| CCACACUACAAGCAAUCAGUC [Fam1B.1 aminoacylation ribozyme variant] | 0.617 | 0.623 | 0.687 | 1.07 | 0.422 | 0.394 |
| CCACACUACAAGCACUCGGUC [Fam1B.1 aminoacylation ribozyme variant] | 0.973 | 1.06 | 1.29 | 0.953 | 1.03 | 1.12 |
| CCACACUACAAGCCAUCGGUC [Fam1B.1 aminoacylation ribozyme variant] | 1.07 | 1.19 | 1.15 | 1 | 0.935 | 0.919 |
| CCACACUCCAAGCACUCGGUC [Fam1B.1 aminoacylation ribozyme variant] | 0.768 | 1.24 | 1.35 | 0.642 | 0.831 | 1.32 |
| CCACACUCCAAGCAGUCGGUC [Fam1B.1 aminoacylation ribozyme variant] | 1.11 | 1.49 | 1.32 | 0.733 | 1.04 | 1.04 |
| CCACACUGAAAGCAAUCGGUC [Fam1B.1 aminoacylation ribozyme variant] | 0.84 | 1.06 | 1.27 | 0.942 | 0.745 | 0.951 |

| Sequence | self-aminoacylation (biotinyl-Leu-oxazolone) | self-aminoacylation (biotinyl-Val-oxazolone) | self-aminoacylation (biotinyl-Ile-oxazolone) | self-aminoacylation (biotinyl-Phe-oxazolone) | self-aminoacylation (biotinyl-Trp-oxazolone) | self-aminoacylation (biotinyl-Met-oxazolone) |
| --- | --- | --- | --- | --- | --- | --- |
| CCACACUGCAAGCAAACGGUC [Fam1B.1 aminoacylation ribozyme variant] | 0.805 | 0.963 | 0.962 | 1.03 | 0.952 | 0.997 |
| CCACACUGCAAGCUAUCGGUC [Fam1B.1 aminoacylation ribozyme variant] | 1.34 | 1.75 | 1.37 | 1.1 | 1.06 | 0.809 |
| CCACACUGCUAGCAAUCGGUC [Fam1B.1 aminoacylation ribozyme variant] | 0.642 | 1.03 | 0.953 | 1.38 | 0.558 | 0.937 |
| CCACACUUAAAGCAAGCGGUC [Fam1B.1 aminoacylation ribozyme variant] | 0.811 | 0.918 | 1.08 | 0.584 | 0.598 | 0.862 |
| CCACACUUAAAGCAAUCAGUC [Fam1B.1 aminoacylation ribozyme variant] | 0.606 | 0.741 | 0.724 | 1.1 | 0.548 | 0.59 |
| CCACACUUAAAGCAAUCGAUC [Fam1B.1 aminoacylation ribozyme variant] | 0.542 | 0.829 | 0.769 | 0.984 | 0.572 | 0.475 |
| CCACACUUCAAACAAGCGGUC [Fam1B.1 aminoacylation ribozyme variant] | 0.728 | 0.746 | 0.922 | 0.971 | 0.603 | 0.68 |
| CCACACUUCAACCAAUCGAUC [Fam1B.1 aminoacylation ribozyme variant] | 0.445 | 0.602 | 0.579 | 1.83 | 0.73 | 0.384 |
| CCACACUUCAACCAGUCGGUC [Fam1B.1 aminoacylation ribozyme variant] | 1.21 | 1.1 | 1.01 | 0.67 | 1.16 | 1.04 |
| CCACACUUCAAGAAACCGGUC [Fam1B.1 aminoacylation ribozyme variant] | 1.17 | 0.824 | 0.998 | 0.875 | 0.931 | 0.798 |
| CCACACUUCAAGCAAAGGGUC [Fam1B.1 aminoacylation ribozyme variant] | 0.481 | 0.58 | 0.575 | 0.81 | 0.431 | 0.44 |
| CCACACUUCAAGCAAGCCGUC [Fam1B.1 aminoacylation ribozyme variant] | 0.921 | 0.963 | 1.1 | 0.837 | 0.664 | 0.835 |
| CCACACUUCAAGCAAUCAAUC [Fam1B.1 aminoacylation ribozyme variant] | 0.482 | 0.671 | 0.545 | 1.2 | 0.515 | 0.371 |
| CCACACUUCAAGCAAUCGUGC [Fam1B.1 aminoacylation ribozyme variant] | 0.425 | 0.768 | 0.546 | 0.571 | 0.46 | 0.55 |
| CCACACUUCAAGCAAUUGGAC [Fam1B.1 aminoacylation ribozyme variant] | 0.583 | 0.697 | 0.72 | 0.614 | 0.337 | 0.664 |
| CCACACUUCAAGCAAUUUGUC [Fam1B.1 aminoacylation ribozyme variant] | 0.578 | 0.844 | 0.66 | 0.856 | 0.663 | 0.597 |
| CCACACUUCAAGCACUCGGUU [Fam1B.1 aminoacylation ribozyme variant] | 1.37 | 1.99 | 1.39 | 1.15 | 1.41 | 1.35 |
| CCACACUUCAAGCAGUCCGUC [Fam1B.1 aminoacylation ribozyme variant] | 0.444 | 0.708 | 0.554 | 0.747 | 0.417 | 0.412 |
| CCACACUUCAAGCAGUCGGAC [Fam1B.1 aminoacylation ribozyme variant] | 0.964 | 1.2 | 1.02 | 0.46 | 0.712 | 1.08 |
| CCACACUUCAAGCAGUCGUUC [Fam1B.1 aminoacylation ribozyme variant] | 0.49 | 0.634 | 0.592 | 0.916 | 0.48 | 0.557 |
| CCACACUUCAAGGAAUCGGUA [Fam1B.1 aminoacylation ribozyme variant] | 1.23 | 1.18 | 1.26 | 0.499 | 0.902 | 1 |
| CCACACUUCAAGGAAUGGGUC [Fam1B.1 aminoacylation ribozyme variant] | 0.717 | 0.6 | 0.725 | 0.331 | 0.398 | 0.727 |
| CCACACUUCAAGUAAUUGGUC [Fam1B.1 aminoacylation ribozyme variant] | 0.606 | 0.664 | 0.643 | 0.948 | 0.863 | 0.713 |
| CCACACUUCAAUCAAUCGCUC [Fam1B.1 aminoacylation ribozyme variant] | 1.06 | 0.865 | 0.809 | 1.53 | 0.656 | 0.848 |
| CCACACUUCAGGCAAUAGGUC [Fam1B.1 aminoacylation ribozyme variant] | 0.606 | 0.742 | 0.624 | 0.689 | 0.621 | 0.605 |
